# Data as given in patent publication EP3964206A1, “COMPOUNDS FOR THE TREATMENT OF COVID-19” (priority 2020, dated 2022).
# Tested on: SARS-CoV-2
# Experiment: microbe, parasite or virus in culture
# Format: cell-based
# Settings: Severe acute respiratory syndrome coronavirus 2, 120 h
smiles,measurement,value
"Nc1ccc(C(=O)Nc2cccc(-c3nc(N4CCOCC4)c4oc5ncccc5c4n3)c2)cn1 [Compound 104, 6-Amino-N-[3-[4-(4-morpholinyl)pyrido[3',2':4,5]furo[3,2-d]pyrimidin-2-yl]phenyl]pyridine-3-carboxamide]",IC50,4.73 µM
